Read-outs that look alike come from different tables or passages of the source. Results are given in words; binding and its absence hold for the method and conditions named. Binding seen in cells or lysates may run through a third protein. These calls come from enrichment with a bait or labelling near it, and not all partners need be listed. Sequences can lack the tags named with a protein.

Amino acid sequences for entries named in this document (tags omitted).
UniProt Q01650: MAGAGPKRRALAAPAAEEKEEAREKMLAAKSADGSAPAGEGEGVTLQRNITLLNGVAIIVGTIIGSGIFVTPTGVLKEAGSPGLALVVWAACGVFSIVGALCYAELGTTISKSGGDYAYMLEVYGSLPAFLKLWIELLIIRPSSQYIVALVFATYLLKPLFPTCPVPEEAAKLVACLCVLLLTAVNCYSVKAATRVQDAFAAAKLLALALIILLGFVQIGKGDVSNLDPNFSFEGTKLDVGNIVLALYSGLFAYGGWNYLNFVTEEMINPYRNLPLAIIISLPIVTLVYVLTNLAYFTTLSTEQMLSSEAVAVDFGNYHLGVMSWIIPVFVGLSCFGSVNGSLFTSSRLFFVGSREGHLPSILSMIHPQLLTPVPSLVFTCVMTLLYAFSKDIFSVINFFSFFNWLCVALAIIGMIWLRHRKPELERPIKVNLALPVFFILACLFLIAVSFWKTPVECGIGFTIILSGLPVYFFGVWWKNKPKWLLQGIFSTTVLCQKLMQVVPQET

Here are results for 4 molecules from PMC7498585.

Assay [1] deals with T1, DRAM1-BioID2-FLAG (human) (UniProt Q8N682).
T1 sequence: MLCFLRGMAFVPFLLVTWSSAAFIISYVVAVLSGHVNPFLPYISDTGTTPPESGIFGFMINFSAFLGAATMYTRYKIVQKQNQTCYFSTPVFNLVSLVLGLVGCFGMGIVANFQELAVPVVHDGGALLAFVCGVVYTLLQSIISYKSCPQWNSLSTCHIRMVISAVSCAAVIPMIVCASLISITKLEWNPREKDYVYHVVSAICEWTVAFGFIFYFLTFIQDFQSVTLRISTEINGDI
Nature of the assay: proximity labelling; BioID2 fused to the C-terminus of DRAM1, transiently expressed in HEK293T; 30 μM biotin for 24 h; RIPA lysate; biotinylated proteins isolated on avidin resin and identified by LC-MS/MS.

Assay [2] deals with T1, DRAM1-BioID2-FLAG (human). Described as above. This is another data set of the same source.

Regarding SLC7A5 (from UniProt Q01650 1-507), the binding result in assay [1] was “binds”.

In the case of SLC3A2 (from UniProt P08195 1-529), the binding entry in assay [1] is listed as “binds”.

B1: EPS15 (epidermal growth factor receptor pathway substrate 15) (protein, UniProt P42566 1-896)
chain: MAAAAQLSLTQLSSGNPVYEKYYRQVDTGNTGRVLASDAAAFLKKSGLPDLILGKIWDLADTDGKGILNKQEFFVALRLVACAQNGLEVSLSSLNLAVPPPRFHDTSSPLLISGTSAAELPWAVKPEDKAKYDAIFDSLSPVNGFLSGDKVKPVLLNSKLPVDILGRVWELSDIDHDGMLDRDEFAVAMFLVYCALEKEPVPMSLPPALVPPSKRKTWVVSPAEKAKYDEIFLKTDKDMDGFVSGLEVREIFLKTGLPSTLLAHIWSLCDTKDCGKLSKDQFALAFHLISQKLIKGIDPPHVLTPEMIPPSDRASLQKNIIGSSPVADFSAIKELDTLNNEIVDLQREKNNVEQDLKEKEDTIKQRTSEVQDLQDEVQRENTNLQKLQAQKQQVQELLDELDEQKAQLEEQLKEVRKKCAEEAQLISSLKAELTSQESQISTYEEELAKAREELSRLQQETAELEESVESGKAQLEPLQQHLQDSQQEISSMQMKLMEMKDLENHNSQLNWCSSPHSILVNGATDYCSLSTSSSETANLNEHVEGQSNLESEPIHQESPARSSPELLPSGVTDENEVTTAVTEKVCSELDNNRHSKEEDPFNVDSSSLTGPVADTNLDFFQSDPFVGSDPFKDDPFGKIDPFGGDPFKGSDPFASDCFFRQSTDPFATSSTDPFSAANNSSITSVETLKHNDPFAPGGTVVAASDSATDPFASVFGNESFGGGFADFSTLSKVNNEDPFRSATSSSVSNVVITKNVFEETSVKSEDEPPALPPKIGTPTRPCPLPPGKRSINKLDSPDPFKLNDPFQPFPGNDSPKEKDPEIFCDPFTSATTTTNKEADPSNFANFSAYPSEEDMIEWAKRESEREEEQRLARLNQQEQEDLELAIALSKSEISEA
Turning to B1, the binding result in assay [2] is “binds”.

B2: SLC1A5 (protein, UniProt Q15758 1-541)
chain: MVADPPRDSKGLAAAEPTANGGLALASIEDQGAAAGGYCGSRDQVRRCLRANLLVLLTVVAVVAGVALGLGVSGAGGALALGPERLSAFVFPGELLLRLLRMIILPLVVCSLIGGAASLDPGALGRLGAWALLFFLVTTLLASALGVGLALALQPGAASAAINASVGAAGSAENAPSKEVLDSFLDLARNIFPSNLVSAAFRSYSTTYEERNITGTRVKVPVGQEVEGMNILGLVVFAIVFGVALRKLGPEGELLIRFFNSFNEATMVLVSWIMWYAPVGIMFLVAGKIVEMEDVGLLFARLGKYILCCLLGHAIHGLLVLPLIYFLFTRKNPYRFLWGIVTPLATAFGTSSSSATLPLMMKCVEENNGVAKHISRFILPIGATVNMDGAALFQCVAAVFIAQLSQQSLDFVKIITILVTATASSVGAAGIPAGGVLTLAIILEAVNLPVDHISLILAVDWLVDRSCTVLNVEGDALGAGLLQNYVDRTESRSTEPELIQVKSELPLDPLPVPTEEGNPLLKHYRGPAGDATVASEKESVM
Regarding B2, in assay [2], the binding entry is on record as “binds”.
